From patent US20140343143A1, “Use of highly concentrated compositions of selected n-3 fatty acids for the treatment of central nervous system disturbances” (priority 2004, published 2014)
For at least one compound, name, drawing or mass did not settle the structure.

System: dizocilpine-induced popping behaviour (NMDA receptor hypofunction)
Assay: Dizocilpine-induced popping (jumping) behaviour in mice, model of schizophrenia
Settings: clozapine 2.5 mg/Kg i.p. once

For CN1CCN(C2=Nc3cc(Cl)ccc3Nc3ccccc32)CC1 [clozapine], the “effect of the clozapine dose used in the combination” value was “sub-effective”.
